Out of some 52,000 sequences screened, about 210 (0.4%) were called active.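 The calls were made as follows: active = gene whose silencing raises cell survival under the drug, median off-target-corrected z-score across its silencing RNAs 2 or more; inactive = the rest.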 The list shows a part of the results.

A short description of the assay: Resistance to Poly (ADP-Ribose) Polymerase inhibitor: Gene Identification via Genome-wide siRNA Screen. The following applies: mouse BRCA2 R2336H ES cells, olaparib, CellTiter-Glo viability; stronger effect = higher value. In short, it runs like this: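 Mouse BRCA2 R2336H ES cells were reverse-transfected with siRNA (20 nM final), treated at 48 h with 500 nM olaparib, and read by CellTiter-Glo after 72 h. Scores: MAD-based z per siRNA, median per gene, seed off-target correction.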
A general note: Cellular ATP, detected with luciferase, serves as a proxy for viable cell number.
For GGAAACCAGAACAUCACUUTT against Olfr829, the z-score is inactive: -0.971. On to GGCUGAAUUUUGUGACUAUTT against Il18r1, for which the z-score was inactive: 2.32.

On to GGUCAGAAAAACAACCACGTT against Phxr5, for which the z-score was inactive: -0.832. Consider GCCUCUUCAUGUCAGUCCCTT against Capn12, for which the z-score is inactive: 0.65. As for GGACUAUGCCGAUAAUAUCTT against Rab24, the figure is inactive: 0.812; as for “GGAAAAACUACAUGGUAAATT against 1700016F23Rik”, inactive: -0.947; as for GGAAUUCAGAGACAGACUATT against Fpr-rs4, inactive: -1.45. Take GCUAGACCUCACUGUUUUUTT against Sprr2i: the z-score was inactive: 0.816. GGUUGAAGACUUCUUACUUTT against Cdc25a: the z-score was inactive: -0.11. As for GCUCACACUCUUCAUUAUCTT against Olfr1408, the z-score was inactive: 0.574. On to “GGAGCAACAGCCAAAUACCTT against 1700001F22Rik”, for which the z-score is inactive: 0.124.

For the sequence GCUCCUAUUACCAAAUUAATT against Olfr747, the z-score was inactive: 0.558. The same measure for GCCCAAGUGUACUACCGUGTT against Ece1: inactive: 0.0965; for GGACUUCAGCAACUAUAGUTT against Ggtl3: inactive: 0.246; for GGUUCUUCCCACAGAAGACTT against Pggt1b: inactive: 1.33. For the sequence GGAUGAGGUGAUUAAAGAATT against Cd9, the z-score is inactive: 2.08.

On to GGAUCAAAACUUAAAUGGUTT against Lancl1, for which the z-score is inactive: 1.26. On to GCUGCUAAAGAGCAUUUUGTT against Fkbp11, for which the z-score was inactive: -0.975. Regarding “GGUUAAAUAAUCCACAAGCTT against 4930563D23Rik”, the z-score is inactive: 1.59. In the case of GGACAUUUCUAUGUCUUUGTT against Cpt2, the z-score was inactive: -0.58. Regarding CCUAAUUGUCCUUCACAUGTT against Pfkfb2, the z-score is inactive: 0.124. Regarding GCGAUUUCACACCAUCACATT against Rab10, the z-score was inactive: -0.183. The same measure for “GGAAACCAUCGAGCAAGAGTT against 1700129I15Rik”: inactive: -1.56; for GGAAUCAUUGACGUAAUCATT against Chi3l3: inactive: 0.209. As for GGCUGUGGAAGUGCAGAACTT against Dnmt3a, the figure is inactive: -0.383; as for GGCCAAGAGCAACUCACUGTT against BC048671, inactive: -0.991. GCAUUAUUCUGAGGACACATT against FHOS2: the z-score was inactive: 1.26.

For the sequence GGAAGAAGUUGGAGAUGUUTT against Dhrs8, the z-score was inactive: -2.07. Consider GGACCAAGCAAGAAGGUGGTT against Tatdn2, for which the z-score was inactive: -1.43. For the sequence GGAGGAGCUCCUAAAGUGUTT against Bcat1, the z-score is inactive: 0.987.

Turning to GGGUUGUGCCUCACAGAUUTT against Olfr976, the z-score is inactive: 0.28. GGACAUCCUCAAGCUUCAUTT against Cib2: the z-score is inactive: -0.811. GGAGAAGUCUUCAUUUGAATT against Tubgcp2: the z-score is inactive: -1.47. Take “GGCUCAGCAUGUGUCAUACTT against 3010027G13Rik”: the z-score is inactive: -0.23. With GCUAAUGCUAGGUGUGAAATT against Caskin2, the z-score was inactive: -1.27. As to GGAAGAAAUUUUUCGUUGATT against Gldc, the z-score was inactive: -0.0281. Take GCUAAUAACUGUUCACAUATT against Baiap1: the z-score is inactive: 1.11.

GGCAGAAUCUAAAGACCAATT against Aldh8a1: the z-score was inactive: 0.723. In the case of GGCACUCAACACCUGUAUATT against Olfr640, the z-score is inactive: -0.209.

Take GGAUGUGGCAUCCUACCACTT against Bfsp2: the z-score is inactive: 2.28. As to “GGUAAACAUGAUGUCCCUCTT against A630038E17Rik”, the z-score is inactive: -0.0528. Consider GGAACGAGAAUCGGAGAUGTT against Mapk8ip3, for which the z-score is inactive: 0.251. For the sequence GCUCAUGAUUACUGCCAAUTT against Olfr1305, the z-score was inactive: 1.83. With GGCUACGCAGCGAAGAAAATT against Rpl32, the z-score is inactive: -3.38. As for GCUUUAUGAGUUCACGGAGTT against Prkab2, the figure is inactive: 0.97; as for GGUGGGCACUCUGGUUUUUTT against Eif4e, inactive: -2.62; as for GGGCUGUUUGUAGCAGAUUTT against Olfr1279, inactive: -2.42.

Turning to CGAUAAAACAGAACAUAGUTT against Stxbp4, the z-score is inactive: 1.79. For the sequence GGCUCUUUUGAUCACCAAUTT against Abcc1, the z-score was inactive: -0.125. In the case of CCUAGGAAUCCUUGAUGAUTT against Bmp8b, the z-score is inactive: -0.925. As for “GGUCUAUGCGAUGCUAUACTT against A830091I15Rik”, the z-score is inactive: -1.05. As for GGGAGUUCUCUAAAUGCUUTT against Olfr482, the z-score is inactive: -0.421. On to “CCGGGUCCGAGUAGAUUUUTT against 2610014H22Rik”, for which the z-score is inactive: 0.103. Regarding GCCACUCAUAUUGAUCCAUTT against Prss34, the z-score is inactive: 0.104. As for GGCUGUGAAUGGAUGGAGGTT against Carkl, the figure is inactive: -1.05. With CCAAAAUCAUAGAUGGAGUTT against Postn, the z-score was inactive: -0.00793.

As for “GGUCAUUGCCACACAGAUCTT against 1810008K03Rik”, the z-score is inactive: 1.57. In the case of “CGACAAGGUAUGGAAAGCUTT against MGI:2153084”, the z-score was inactive: -1.96. The same measure for GCGGGAGAGCUAUGAAACATT against Mrps21: inactive: -1.56; for “GCAGUCGAAGCACUAAAAATT against 1110034A24Rik”: inactive: 3.14; for CCUGCAAGACAUUUCUCAGTT against Gm1968: inactive: 1.62. Regarding GGCUUUCAGUUAUUUGACATT against BC021921, the z-score was inactive: -0.0774. In the case of GCAAAACUGGCUGUCAGUATT against Rnf24, the z-score was inactive: 0.036. In the case of GCGGCUAUGUUACAGGAGCTT against Skb1, the z-score is inactive: 1.84. For GCGCAAAUACAUUGAGGAUTT against Slc17a7, the z-score was inactive: -0.487. Regarding CGUGGACUAAAAGUUUUCATT against Mmp12, the z-score was inactive: 1.76.
